# Assay results reported in the supplement of paper PMC8728848.
# This is one part of the list.
# What was measured:
# Experiment in all cases: glycan array binding signal (z-score within array); higher = stronger binding
# Conditions in all cases: glycan notation: IUPAC condensed, linker removed
# [1] = target: Fuc(a1-2)Gal
# Procedure, shortened: (§1)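 The binding signal is a Z-score computed within each array and averaged over linkers. Arrays of the same protein sequence at different concentrations or buffers were also averaged together. Data originate from 3228 arrays in the Consortium for Functional Glycomics database, kept only where the protein sequence was available.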
# [2] = target: Fuc(a1-2)Gal(b1-3)GalNAc
# Procedure, shortened: as §1
# [3] = target: Fuc(a1-2)Gal(b1-3)GalNAc(a1-3)[Fuc(a1-2)]Gal(b1-4)Glc
# Procedure, shortened: as §1
# [4] = target: Fuc(a1-2)Gal(b1-3)GalNAc(a1-3)[Fuc(a1-2)]Gal(b1-4)GlcNAc
# Procedure, shortened: as §1
# [5] = target: Fuc(a1-2)Gal(b1-3)GalNAc(b1-3)Gal
# Procedure, shortened: as §1
# [6] = target: Fuc(a1-2)Gal(b1-3)GalNAc(b1-3)Gal(a1-4)Gal(b1-4)Glc
# Procedure, shortened: as §1
# [7] = target: Fuc(a1-2)Gal(b1-3)GalNAc(b1-4)[Neu5Ac(a2-3)]Gal(b1-4)Glc
# Procedure, shortened: as §1
# [8] = target: Fuc(a1-2)Gal(b1-3)GlcNAc
# Procedure, shortened: as §1
# [9] = target: Fuc(a1-2)Gal(b1-3)GlcNAc(b1-2)Man(a1-3)[Fuc(a1-2)Gal(b1-3)GlcNAc(b1-2)Man(a1-6)]Man(b1-4)GlcNAc(b1-4)GlcNAc
# Procedure, shortened: as §1
# [10] = target: Fuc(a1-2)Gal(b1-3)GlcNAc(b1-2)Man(a1-3)[Fuc(a1-2)Gal(b1-3)GlcNAc(b1-2)Man(a1-6)]Man(b1-4)GlcNAc(b1-4)[Fuc(a1-6)]GlcNAc
# Procedure, shortened: as §1
# [11] = target: Fuc(a1-2)Gal(b1-3)GlcNAc(b1-3)Gal(b1-4)Glc
# Procedure, shortened: as §1
# [12] = target: Fuc(a1-2)Gal(b1-3)GlcNAc(b1-3)GalNAc
# Procedure, shortened: as §1
# [13] = target: Fuc(a1-2)Gal(b1-3)GlcNAc(b1-3)[Fuc(a1-2)Gal(b1-3)GlcNAc(b1-6)]GalNAc
# Procedure, shortened: as §1
# [14] = target: Fuc(a1-2)Gal(b1-3)GlcNAc(b1-3)[Gal(b1-4)GlcNAc(b1-6)]Gal(b1-4)Glc
# Procedure, shortened: as §1
# [15] = target: Fuc(a1-2)Gal(b1-3)GlcNAc(b1-3)[Neu5Ac(a2-6)Gal(b1-4)GlcNAc(b1-6)]Gal(b1-4)Glc
# Procedure, shortened: as §1
# [16] = target: Fuc(a1-2)Gal(b1-3)GlcNAc6S
# Procedure, shortened: as §1
# [17] = target: Fuc(a1-2)Gal(b1-3)[Fuc(a1-4)]GlcNAc
# Procedure, shortened: as §1
# [18] = target: Fuc(a1-2)Gal(b1-3)[Fuc(a1-4)]GlcNAc(b1-2)Man(a1-3)[Fuc(a1-2)Gal(b1-3)[Fuc(a1-4)]GlcNAc(b1-2)Man(a1-3)]Man(b1-4)GlcNAc(b1-4)GlcNAc
# Procedure, shortened: as §1
# [19] = target: Fuc(a1-2)Gal(b1-3)[Fuc(a1-4)]GlcNAc(b1-2)Man(a1-3)[Fuc(a1-2)Gal(b1-3)[Fuc(a1-4)]GlcNAc(b1-2)Man(a1-6)]Man(b1-4)GlcNAc(b1-4)[Fuc(a1-6)]GlcNAc(b1-4)[Fuc(a1-6)]GlcNAc
# Procedure, shortened: as §1
# [20] = target: Fuc(a1-2)Gal(b1-3)[Fuc(a1-4)]GlcNAc(b1-3)[Fuc(a1-3)[Gal(b1-4)]GlcNAc(b1-6)]Gal(b1-4)Glc
# Procedure, shortened: as §1
# [21] = target: Fuc(a1-2)Gal(b1-3)[Fuc(a1-4)]GlcNAc(b1-3)[Gal(b1-4)GlcNAc(b1-6)]Gal(b1-4)Glc
# Procedure, shortened: as §1
# [22] = target: Fuc(a1-2)Gal(b1-4)Glc
# Procedure, shortened: as §1
# [23] = target: Fuc(a1-2)Gal(b1-4)Glc6S
# Procedure, shortened: as §1
# [24] = target: Fuc(a1-2)Gal(b1-4)GlcNAc
# Procedure, shortened: as §1
# [25] = target: Fuc(a1-2)Gal(b1-4)GlcNAc(b1-2)Man
# Procedure, shortened: as §1
# [26] = target: Fuc(a1-2)Gal(b1-4)GlcNAc(b1-2)Man(a1-3)[Fuc(a1-2)Gal(b1-4)GlcNAc(b1-2)Man(a1-6)]Man(b1-4)GlcNAc(b1-4)GlcNAc
# Procedure, shortened: as §1
# [27] = target: Fuc(a1-2)Gal(b1-4)GlcNAc(b1-2)Man(a1-3)[Fuc(a1-2)Gal(b1-4)GlcNAc(b1-2)Man(a1-6)]Man(b1-4)GlcNAc(b1-4)[Fuc(a1-6)]GlcNAc
# Procedure, shortened: as §1
# [28] = target: Fuc(a1-2)Gal(b1-4)GlcNAc(b1-2)[Fuc(a1-2)Gal(b1-4)GlcNAc(b1-4)]Man(a1-3)[Fuc(a1-2)Gal(b1-4)GlcNAc(b1-2)Man(a1-6)]Man(b1-4)GlcNAc(b1-4)GlcNAc
# Procedure, shortened: as §1
# [29] = target: Fuc(a1-2)Gal(b1-4)GlcNAc(b1-3)Gal(b1-4)GlcNAc
# Procedure, shortened: as §1
# [30] = target: Fuc(a1-2)Gal(b1-4)GlcNAc(b1-3)Gal(b1-4)GlcNAc(b1-2)Man(a1-3)[Fuc(a1-2)Gal(b1-4)GlcNAc(b1-3)Gal(b1-4)GlcNAc(b1-2)Man(a1-6)]Man(b1-4)GlcNAc(b1-4)GlcNAc
# Procedure, shortened: as §1
binder,measurement,setting,value
GS7807F-bth-514-18-514 (Bacteroides thetaiotaomicron) (protein) AGSCTGNFEEYNTNQFQIHEADPSTLMKSMIETIVNIQQNDSQMMDQMVGQLGGYLTCANVWSGTNFGTFNQSDAWNAGPWNTNFEKIYGNFFQIQEATNESGHYYAFARMIRAITMLRVADCYGPMPYSQVKKGNFYVAYDTEEQVYKNIMEDFASAANVLYNYYKDTNGNAPLASNDPVFSGNYANWARLANSMRLRVAIRISTAYPEMAKENAEAAASHEAGLIEANNDNAMMDCGSQTNPYQLAAVSWGDLRVNANIVDYMNGYGDPRMSKYFNHSTFTGHTQEYVGMRSGEDGFAKSDVAGYSIPAITGTSKLLVFCAAETAFLRAEGKLKNWSVGNKSAKEYYEEGIKLSMEQYGTTMPDNYLTNTEKPTVSHNNDPRGHAYTISNTVAVAWNDNNEEENLQRIITQKWIANYPLGLEAWAEYRRTGYPELYPCIDNLSPSGVDSKRGMRRLRFPYTEVQNNHSNYQQGVSYLKNGGPDNEATDLSWGKTN,glycan array binding signal (z-score),[1],1.05
same,glycan array binding signal (z-score),[2],-0.828
same,glycan array binding signal (z-score),[3],-0.349
same,glycan array binding signal (z-score),[4],-0.743
same,glycan array binding signal (z-score),[5],0.272
same,glycan array binding signal (z-score),[6],-0.883
same,glycan array binding signal (z-score),[7],-0.618
same,glycan array binding signal (z-score),[8],0.051
same,glycan array binding signal (z-score),[9],0.69
same,glycan array binding signal (z-score),[10],-0.236
same,glycan array binding signal (z-score),[11],-0.475
same,glycan array binding signal (z-score),[12],-0.223
same,glycan array binding signal (z-score),[13],0.199
same,glycan array binding signal (z-score),[14],-0.372
same,glycan array binding signal (z-score),[15],-0.461
same,glycan array binding signal (z-score),[16],0.274
same,glycan array binding signal (z-score),[17],-0.815
same,glycan array binding signal (z-score),[18],-0.43
same,glycan array binding signal (z-score),[19],-0.564
same,glycan array binding signal (z-score),[20],-0.825
same,glycan array binding signal (z-score),[21],0.364
same,glycan array binding signal (z-score),[22],-0.812
same,glycan array binding signal (z-score),[23],-0.604
same,glycan array binding signal (z-score),[24],-0.792
same,glycan array binding signal (z-score),[25],-0.353
same,glycan array binding signal (z-score),[26],0.988
same,glycan array binding signal (z-score),[27],0.079
same,glycan array binding signal (z-score),[28],-0.747
same,glycan array binding signal (z-score),[29],-0.828
same,glycan array binding signal (z-score),[30],0.8

# Fetched one by one from the list above:
binder,measurement,setting,value
GS7807F-bth-514-18-514 (Bacteroides thetaiotaomicron) (protein) AGSCTGNFEEYNTNQFQIHEADPSTLMKSMIETIVNIQQNDSQMMDQMVGQLGGYLTCANVWSGTNFGTFNQSDAWNAGPWNTNFEKIYGNFFQIQEATNESGHYYAFARMIRAITMLRVADCYGPMPYSQVKKGNFYVAYDTEEQVYKNIMEDFASAANVLYNYYKDTNGNAPLASNDPVFSGNYANWARLANSMRLRVAIRISTAYPEMAKENAEAAASHEAGLIEANNDNAMMDCGSQTNPYQLAAVSWGDLRVNANIVDYMNGYGDPRMSKYFNHSTFTGHTQEYVGMRSGEDGFAKSDVAGYSIPAITGTSKLLVFCAAETAFLRAEGKLKNWSVGNKSAKEYYEEGIKLSMEQYGTTMPDNYLTNTEKPTVSHNNDPRGHAYTISNTVAVAWNDNNEEENLQRIITQKWIANYPLGLEAWAEYRRTGYPELYPCIDNLSPSGVDSKRGMRRLRFPYTEVQNNHSNYQQGVSYLKNGGPDNEATDLSWGKTN,glycan array binding signal (z-score),[13],0.199
same,glycan array binding signal (z-score),[9],0.69
